# PubChem BioAssay AID504784, Drosophila RNAi Screening Center, 2011
# Purpose: 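Genome-wide knock-down for genes giving too much or too little stored lipid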 (primary screen)
# Cells: Drosophila Kc167 embryonic cells
# Reagent: long dsRNA against Drosophila genes, about 250 ng dsRNA per well
# Duration: 4 days
# Challenge: cells fed 400 µM oleic acid bound to BSA
# Read-out: 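Microscope images give a droplet-to-nucleus area ratio, taken as log and converted to a screen-wide B-score; higher values mean greater lipid storage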
# Reading the numbers: droplet/nuclear area B-score: higher = more stored lipid (overstorage)
# In all, the deposit lists about 17,000 reagents; this is a random part of those that have a named target and a result. 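Each column is one replicate's B-score; the combined score over replicates was not deposited, so single values may mislead.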 A plus sign joins genes that one reagent is predicted to hit. Further read-outs or replicates are left out here.
gene knocked down,PubChem SID,"droplet/nuclear area B-score, replicate 1","droplet/nuclear area B-score, replicate 2"
CG9993,SID104184391,-1.67,1.37
CG13202,SID104186118,-0.145,-0.644
CG15705,SID104186368,1.23,
Galphao,SID104187222,-0.00919,-0.981
CG12343,SID104185927,0.00267,-0.95
dock,SID104180604,-0.826,1.71
Seipin,SID104198446,0.506,1.15
Nup160,SID104182566,-2.17,-1.39
Miga,SID104197613,-0.489,0.55
CG13334,SID104186161,-0.131,-0.276
Balat,SID104186644,-0.0937,0.206
Targ1,SID104191408,0.404,-1.08
CG31740,SID104181411,0.397,-1.01
rept,SID104191180,2.49,-1.23
ZAP3,SID104197644,1.55,-0.145
ZAP3,SID104197645,-3.77,-0.449
ZAP3,SID104198041,-0.547,0.0847
Oseg4,SID104188340,-0.407,
kibra,SID104194325,-1.17,0.609
kibra,SID104196049,-1.69,0.0635
kibra,SID104202640,-0.0395,-0.0445
Tbc1d15-17,SID104180105,1.62,-1.35
Spt7,SID104199789,0.0083,-0.669
gfzf,SID104192298,0.00729,0.289
gfzf,SID104201510,-0.332,-0.485
Best1,SID104196701,-0.681,-0.0477
drosha,SID104187399,-2.62,-2.71
sut4,SID104187495,-0.0221,-1.16
CG10154,SID104189499,1.86,0.928
CG2182,SID104192100,-0.112,4.16
Mgat4a,SID104189118,2.38,0.317
Mgat4a,SID104190862,-0.0217,0.655
Rhau,SID104182992,-2.43,-0.688
CG9184,SID104188428,-0.872,-0.967
CG9184,SID104201727,-0.309,-1.8
CG8389,SID104186950,0.197,1.47
CG8389,SID104202214,-0.693,-0.162
clumsy,SID104182903,0.905,-0.948
AttA,SID104185718,-0.955,1.38
Ir48b,SID104186112,-0.537,0.15
CG32428,SID104191489,-0.378,1.61
CG32428,SID104191560,-0.11,-0.16
CG32829,SID104180753,5.01,0.0746
CG32829,SID104202164,0.361,0.61
Alp13,SID104195573,-0.79,-0.849
GLaz,SID104187223,3.69,0.149
CG11619,SID104189641,-1.22,-2.3
BckdhA,SID104196187,0.014,-0.267

In a second layout: results already given
gene knocked down	PubChem SID	droplet/nuclear area B-score, replicate 1	droplet/nuclear area B-score, replicate 2
sut4	SID104187495	-0.0221	-1.16
CG10154	SID104189499	1.86	0.928
CG2182	SID104192100	-0.112	4.16
Mgat4a	SID104189118	2.38	0.317
Mgat4a	SID104190862	-0.0217	0.655

Further reagents follow:
gene knocked down,PubChem SID,"droplet/nuclear area B-score, replicate 1","droplet/nuclear area B-score, replicate 2"
ck,SID104183301,-0.0379,
eIF3j,SID104185899,1.9,-0.0728
CG31517,SID104192802,0.385,0.782
CG3909,SID104193942,-1.67,-0.814
CG12684,SID104197667,-0.0387,10.1
CG13216,SID104186130,2.47,2.41
Pi4KIIalpha,SID104192114,-4.38,1.27
Pi4KIIalpha,SID104192115,-0.309,-0.564
Nmdar1,SID104191863,0.948,-1.42
Nmdar1,SID104192148,0.0174,0.172
sowah,SID104188978,1.05,-0.12
sowah,SID104189550,-0.327,1.42
Hsp60D,SID104182335,0.0417,0.173
Trf4-2,SID104195029,0.131,-0.126
cic,SID104194068,-0.406,0.994
cic,SID104195500,0.935,0.74
cic,SID104196710,1.04,2.18
cic,SID104201035,1.44,-0.51
cic,SID104202574,1.62,0.331
Ube4B,SID104183069,-1.49,0.888
CG6638,SID104190472,0.0994,-0.0381
CG4866,SID104186691,-1.59,-0.0326
CG10553,SID104194046,0.381,-0.0263
CG8379,SID104196206,-0.933,0.0573
CG30281,SID104184320,0.658,0.00753
PolH,SID104191592,0.148,0.114
Arp8,SID104199851,-0.457,0.675
Nep2,SID104191918,-0.104,1.11
Nep2,SID104201161,-0.226,-0.00208
Mlf,SID104187264,0.0141,0.0023
CG5188,SID104182618,-1.4,0.629
CG4733,SID104195426,0.8,0.979
Lcp65Ag3 + Lcp65Ag2 + Lcp65Ag1,SID104191006,-1.84,-1.33
Lcp65Ag3 + Lcp65Ag2 + Lcp65Ag1,SID104191007,-0.102,-0.722
CG14075,SID104189872,-1.37,-2.61
